From patent US12427210B2 (priority 2019, dated 2025) come the findings set out here.

Data set [1] in a line: general procedure: Fmoc solid-phase peptide synthesis; Fmoc-Cys(Trt)-WANG Tentagel. The settings on record: whole synthesis, scale 50 μmol, thioether ring; run 2.
The nature of data set [2]: general procedure: Fmoc solid-phase peptide synthesis; polystyrene (PS or DEG cross-linked), ChemMatrix (CM) or TentaGel (TG); linkers trityl, wang and rink amide. To be noted: for step yield: late stage modification step.
The nature of data set [3]: general procedure: Fmoc solid-phase peptide synthesis; trityl resin. The settings on record: whole synthesis, scale 50 μmol.
The nature of data set [4]: general procedure: Fmoc solid-phase peptide synthesis; Rink amide resin. The settings on record: whole synthesis, scale 50 μmol.

As for “Hex-[Cys(tMeBn(DOTA-AET))-Pro-Pro-Thr-Gln-Phe-Cys]-OH”, the isolated mass in data set [1] is 11.0 mg; in data set [2] (whole synthesis, scale 50 μmol, thioether ring, run 1) it was 20.44 mg. In addition, the isolated yield was 27.8% overall yield in data set [2] (whole synthesis, overall, scale of the general procedure 50 μmol and 100 μmol, thioether ring); 15% in data set [2] (whole synthesis, scale 50 μmol, thioether ring).
Turning to “Hex-[Cys(tMeBn(DOTA-PP))-Pro-Pro-Thr-Gln-Phe-Cys]-Asp-NH2”, the conjugation yield in data set [2] (conjugation step, on peptide intermediate, thioether ring) is listed as 85%.
In data set [2] (thioether ring), “Hex-[Cys(tMeBn(EuDOTA-AET))-Pro-Pro-Thr-Gln-Phe-Cys]-OH” had a step yield of 83%.
For “Hex-[Cys(tMeBn(EuDOTA-PP))-Pro-Pro-Thr-Gln-Phe-Cys]-Asp-NH2”, the step yield in data set [2] (thioether ring) stood at 79.3%.
For the substance “Hex-[Cys(tMeBn(GaDOTA-AET))-Pro-Pro-Thr-Gln-Phe-Cys]-OH”, the step yield in data set [2] (thioether ring) amounted to 51%.
“Hex-[Cys(tMeBn(GaDOTA-PP))-Pro-Pro-Thr-Gln-Phe-Cys]-Asp-NH2” showed a step yield in data set [2] (thioether ring) of 69.3%.
Consider “Hex-[Cys(tMeBn(H-AET))-Pro-Pro-Thr-Gln-Phe-Cys]-OH”, for which the isolated mass in data set [3] (run 1) is recorded as 17.8 mg; in data set [3] (run 2), 19.47 mg. Besides, the isolated yield in data set [2] (whole synthesis, on resin loading, scale 50 μmol, run 1) was determined as 32.8%; in data set [2] (whole synthesis, on resin loading, scale 50 μmol, run 2), 35.9%.
As for “Hex-[Cys(tMeBn(H-PP))-Pro-Pro-Thr-Gln-Phe-Cys]-Asp-NH2”, the isolated mass came out at 15.3 mg in data set [4] (run 1) and 17.2 mg in data set [4] (run 2). For the same substance, the isolated yield in data set [2] (whole synthesis, on resin loading, scale of the general procedure 50 μmol and 100 μmol, run 1) is given as 25.3%; in data set [2] (whole synthesis, on resin loading, scale of the general procedure 50 μmol and 100 μmol, run 2) it was 28.4%.
In turn, “Hex-[Cys(tMeBn(InDOTA-AET))-Pro-Pro-Thr-Gln-Phe-Cys]-OH” displayed a step yield in data set [2] (thioether ring) of 81%.
In data set [2], “Hex-[Cys(tMeBn(InDOTA-PP))-Pro-Pro-Thr-Gln-Phe-Cys]-Asp-NH2” showed a step yield of 68.1%.
Take “Hex-[Cys(tMeBn(LuDOTA-AET))-Pro-Pro-Thr-Gln-Phe-Cys]-OH”: the step yield in data set [2] (thioether ring) is reported as 82%.
In data set [2] (thioether ring), “Hex-[Cys(tMeBn(LuDOTA-PP))-Pro-Pro-Thr-Gln-Phe-Cys]-Asp-NH2” had a step yield of 60.1%.
“Hex-[Cys-(tMeBn(CuDOTA-AET))-Pro-Pro-Thr-Gln-Phe-Cys]-OH” registered a step yield in data set [2] (thioether ring) of 88%.
Same read-out and setting: the value for “Hex-[Cys-(tMeBn(ZnDOTA-AET))-Pro-Pro-Thr-Gln-Phe-Cys]-OH” was 77%.
